{
  "sequences": {"note": "The chains behind the UniProt entries cited, without tags or fusion partners.", "UniProt Q15796": "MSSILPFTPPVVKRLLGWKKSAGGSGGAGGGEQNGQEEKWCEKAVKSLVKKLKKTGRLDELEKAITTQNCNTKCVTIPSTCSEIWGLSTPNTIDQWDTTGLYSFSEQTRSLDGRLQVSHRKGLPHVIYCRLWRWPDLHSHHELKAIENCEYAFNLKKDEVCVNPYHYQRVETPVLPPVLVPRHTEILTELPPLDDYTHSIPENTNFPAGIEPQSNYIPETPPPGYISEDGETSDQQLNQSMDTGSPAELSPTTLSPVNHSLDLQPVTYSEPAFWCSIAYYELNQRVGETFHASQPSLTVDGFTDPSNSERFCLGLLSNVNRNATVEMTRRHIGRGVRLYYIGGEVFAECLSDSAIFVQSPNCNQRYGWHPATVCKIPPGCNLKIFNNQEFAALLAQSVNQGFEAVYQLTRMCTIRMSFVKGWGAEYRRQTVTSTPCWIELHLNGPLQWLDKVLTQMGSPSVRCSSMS"},
  "source": "paper doi:10.1101/383497",
  "target": "p53 (human (endogenous in AGS-EBV)) (UniProt P04637)",
  "assay": "co-IP",
  "note": "No constants are given. Whether binding was seen depends on the method and setting. Binding seen in cells or lysates may run through a third protein. Some entries that bind do so weakly or less than the wild type.",
  "data": [
    {"substance": "SMAD2 (from UniProt Q15796 1-467)", "values": [
      {"measurement": "binding", "result": "binds"}
    ]}
  ]
}
